The other results are listed elsewhere or left out. Single values are uncertain, as repeats are few or missing.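 Imaging used 1,536-well plates; nuclei positive for cleaved PARP by antibody were divided by total DNA-stained nuclei to yield the apoptosis fraction. Doses for screening kept most cells viable, and cell lines differ markedly in resting and induced cleaved-PARP levels.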
Columns and labels:
Test in all cases: cleaved PARP positive nuclei fraction relative to DMSO control; melanoma cells; higher = more apoptosis
Conditions in all cases: library dose: low library concentration; 72 h
MZ2-MEL = tested on: MZ2-MEL
MeWo = tested on: MeWo
RPMI7951 = tested on: RPMI7951
RVH-421 = tested on: RVH-421
SkMel28 = tested on: SkMel28
SkMel30 = tested on: SkMel30
SkMel5 = tested on: SkMel5
UACC257 = tested on: UACC257
UACC62 = tested on: UACC62
WM115 = tested on: WM115
WM1716 = tested on: WM1716
WM1745 = tested on: WM1745
WM3526 = tested on: WM3526
WM3619 = tested on: WM3619
WM451Lu = tested on: WM451Lu

| SMILES | cleaved PARP positive nuclei fraction (MZ2-MEL) [%] | cleaved PARP positive nuclei fraction (MeWo) [%] | cleaved PARP positive nuclei fraction (RPMI7951) [%] | cleaved PARP positive nuclei fraction (RVH-421) [%] | cleaved PARP positive nuclei fraction (SkMel28) [%] | cleaved PARP positive nuclei fraction (SkMel30) [%] | cleaved PARP positive nuclei fraction (SkMel5) [%] | cleaved PARP positive nuclei fraction (UACC257) [%] | cleaved PARP positive nuclei fraction (UACC62) [%] | cleaved PARP positive nuclei fraction (WM115) [%] | cleaved PARP positive nuclei fraction (WM1716) [%] | cleaved PARP positive nuclei fraction (WM1745) [%] | cleaved PARP positive nuclei fraction (WM3526) [%] | cleaved PARP positive nuclei fraction (WM3619) [%] | cleaved PARP positive nuclei fraction (WM451Lu) [%] |
| --- | --- | --- | --- | --- | --- | --- | --- | --- | --- | --- | --- | --- | --- | --- | --- |
| CCN(CC)CCCCNc1ncc2cc(-c3cc(OC)cc(OC)c3)c(NC(=O)NC(C)(C)C)nc2n1 + O=C(Oc1ccc([N+](=O)[O-])cc1)N1CCC(C(O)(c2ccc3c(c2)OCO3)c2ccc3c(c2)OCO3)CC1 [JZL184] (first compound 0.1 µM, partner dose 1 µM) | 128 | 55.7 | 73 | 105 | 95 | 31.4 | 42.3 | 51.4 | 90.2 | 85.5 | 90.4 | 91.7 | 69.9 | 93.7 | 89.5 |
| COc1ccc(COc2ccc(Cc3cnc(N)nc3N)cc2OC)cc1 + C/C(O)=C(\C#N)C(=O)Nc1cc(Br)ccc1Br [LFM-A13] (first compound 1 µM, partner dose 2 µM) | 181 | 103 | 41.2 | 39.9 | 96.5 | 57.6 | 153 | 97.1 | 44.8 | 206 | 63.6 | 112 | 79 | 76.8 | 77.1 |
| C=CCn1c(=O)c2cnc(Nc3ccc(N4CCN(C)CC4)cc3)nc2n1-c1cccc(C(C)(C)O)n1 + O=C(Oc1ccc([N+](=O)[O-])cc1)N1CCC(C(O)(c2ccc3c(c2)OCO3)c2ccc3c(c2)OCO3)CC1 [JZL184] (first compound 0.02 µM, partner dose 1 µM) | 179 | 49.4 | 216 | 140 | 113 | 339 | 121 | 97.4 | 217 | 106 | 284 | 124 | 56.1 | 202 | 55 |
| C[As](C)SC[C@H](NC(=O)CC[C@H](N)C(=O)O)C(=O)NCC(=O)O [Darinaparsin] + c1cc(-c2cnn3cc(-c4ccc(OCCN5CCCCC5)cc4)cnc23)ccn1 [Dorsomorphin] (first compound 0.4 µM, partner dose 0.4 µM) | 44 | 55.7 | 78.3 | 89.4 | 119 | 47.8 | 46.1 | 105 | 71.7 | 88.9 | 58.3 | 261 | 74.9 | 93.3 | 61.8 |
| CO[C@@H]1[C@H](N(C)C(=O)c2ccccc2)C[C@H]2O[C@]1(C)n1c3ccccc3c3c4c(c5c6ccccc6n2c5c31)C(=O)NC4 [Midostaurin] + C/C(O)=C(\C#N)C(=O)Nc1cc(Br)ccc1Br [LFM-A13] (first compound 0.08 µM, partner dose 2 µM) | 97.2 | 125 | 106 | 93.1 | 156 | 42.3 | 32.7 | 84.6 | 92.9 | 258 | 118 | 108 | 36.1 | 90.8 | 30.4 |
| Cc1cc(SCc2sc(-c3ccc(C(F)(F)F)c(F)c3)nc2C)ccc1OCC(=O)O + O=C1NC(=O)/C(=C/c2ccc(-c3ccc(F)cc3O)o2)S1 [AS252424] (first compound 2 µM, partner dose 1 µM) | 56.4 | 114 | 79.9 | 119 | 85.2 | 54.4 | 186 | 282 | 173 | 165 | 55.1 | 114 | 49.3 | 84.1 | 53.7 |
| C[As](C)SC[C@H](NC(=O)CC[C@H](N)C(=O)O)C(=O)NCC(=O)O [Darinaparsin] + O=c1cc(-c2cccc3c2Sc2ccccc2S3)oc(N2CCOCC2)c1 [KU55933] (first compound 0.4 µM, partner dose 1 µM) | 29.3 | 74.4 | 86 | 104 | 110 | 188 | 64.6 | 83.1 | 82.9 | 106 | 87.8 | 200 | 65.6 | 75.3 | 55 |
| NCC(=O)Nc1ccc(-n2nc(C(F)(F)F)cc2-c2ccc3c(ccc4ccccc43)c2)cc1 + Cc1cc(SCc2sc(-c3ccc(C(F)(F)F)c(F)c3)nc2C)ccc1OCC(=O)O [GW0742] (first compound 1 µM, partner dose 2 µM) | 106 | 583 | 73.2 | 39.1 | 196 | 69.4 | 117 | 53.5 | 117 | 141 | 200 | 180 | 144 | 86 | 202 |
| COc1cc(N2CCC(N3CCN(C)CC3)CC2)ccc1Nc1ncc(Cl)c(Nc2ccccc2S(=O)(=O)C(C)C)n1 + O=C(Oc1ccc([N+](=O)[O-])cc1)N1CCC(C(O)(c2ccc3c(c2)OCO3)c2ccc3c(c2)OCO3)CC1 [JZL184] (first compound 0.08 µM, partner dose 1 µM) | 79.4 | 61.7 | 45.8 | 103 | 66.6 | 56.7 | 116 | 35.8 | 12.5 | 32.8 | 63.6 | 117 | 154 | 103 | 93.1 |
| C[C@]12O[C@H](C[C@]1(O)CO)n1c3ccccc3c3c4c(c5c6ccccc6n2c5c31)CNC4=O [Lestaurtinib] + O=C(CCCCCCC(=O)Nc1ccccc1)NO [vorinostat] (first compound 0.004 µM, partner dose 0.08 µM) | 153 | 85.4 | 99.2 | 133 | 73.1 | 87.8 | 129 | 312 | 78.7 | 70.6 | 116 | 80.2 | 69.6 | 110 | 66.8 |
| CC1(C)NC(=O)N(c2ccc([N+](=O)[O-])c(C(F)(F)F)c2)C1=O [nilutamide] + O=C(Oc1ccc([N+](=O)[O-])cc1)N1CCC(C(O)(c2ccc3c(c2)OCO3)c2ccc3c(c2)OCO3)CC1 [JZL184] (first compound 1 µM, partner dose 1 µM) | 137 | 47.8 | 42.1 | 56.3 | 73.6 | 33.6 | 52.4 | 101 | 40.9 | 112 | 66.3 | 101 | 69 | 133 | 27.4 |
| CC(C)(C)c1cnc(CSc2cnc(NC(=O)C3CCNCC3)s2)o1 + O=C(Oc1ccc([N+](=O)[O-])cc1)N1CCC(C(O)(c2ccc3c(c2)OCO3)c2ccc3c(c2)OCO3)CC1 [JZL184] (first compound 0.01 µM, partner dose 1 µM) | 249 | 66.6 | 42.4 | 99.5 | 101 | 61.8 | 42.6 | 235 | 129 | 77.4 | 79.4 | 116 | 71.5 | 80.9 | 43.4 |
| Nc1cccc2c1CN(C1CCC(=O)NC1=O)C2=O (stereo not given) [lenalidomide] + C/C(O)=C(\C#N)C(=O)Nc1cc(Br)ccc1Br [LFM-A13] (first compound 1 µM, partner dose 2 µM) | 59.7 | 26.3 | 79 | 84.8 | 53.6 | 22 | 68.2 | 51.5 | 91.2 | 206 | 134 | 99.1 | 77.8 | 68.3 | 136 |
| C[C@]1(c2nc3c(C(N)=O)cccc3[nH]2)CCCN1 [Veliparib] + Cc1cc(SCc2sc(-c3ccc(C(F)(F)F)c(F)c3)nc2C)ccc1OCC(=O)O [GW0742] (first compound 1.4 µM, partner dose 2 µM) | 45.4 | 115 | 91.4 | 49 | 91.6 | 150 | 80.5 | 113 | 91.4 | 75 | 79.3 | 100 | 144 | 75.3 | 60.9 |
| O=S(=O)(c1ccccc1)N(CC(F)(F)F)c1ccc(C(O)(C(F)(F)F)C(F)(F)F)cc1 + C/C(O)=C(\C#N)C(=O)Nc1cc(Br)ccc1Br [LFM-A13] (first compound 1.4 µM, partner dose 2 µM) | 70.6 | 227 | 167 | 62.4 | 102 | 117 | 248 | 121 | 122 | 277 | 84.3 | 109 | 83.7 | 95.2 | 68.6 |
| O=C(Nc1cccc(Cl)c1)Nc1ncc(CCNc2ncnc3ccsc23)s1 + O=C(Oc1ccc([N+](=O)[O-])cc1)N1CCC(C(O)(c2ccc3c(c2)OCO3)c2ccc3c(c2)OCO3)CC1 [JZL184] (first compound 0.0008 µM, partner dose 1 µM) | 89.2 | 149 | 164 | 28.7 | 111 | 13.4 | 64.2 | 68.6 | 409 | 360 | 101 | 110 | 78 | 91.8 | 56.2 |
| C[As](C)SC[C@H](NC(=O)CC[C@H](N)C(=O)O)C(=O)NCC(=O)O [Darinaparsin] + Cc1cc([N+](=O)[O-])ccc1NS(=O)(=O)c1cc(Cl)ccc1Cl [FH535] (first compound 0.4 µM, partner dose 1 µM) | 94.4 | 81.6 | 132 | 55.7 | 110 | 62.1 | 252 | 167 | 179 | 141 | 58.3 | 109 | 152 | 91 | 114 |
| OCCn1cc(-c2cnc3nnn(Cc4ccc5ncccc5c4)c3n2)cn1 + C/C(O)=C(\C#N)C(=O)Nc1cc(Br)ccc1Br [LFM-A13] (first compound 1 µM, partner dose 2 µM) | 138 | 47.5 | 39.6 | 55.6 | 100 | 12.7 | 63.1 | 87.1 | 47 | 143 | 110 | 104 | 148 | 97.4 | 76.9 |
| O=C(CCCCCCC(=O)Nc1ccccc1)NO [vorinostat] + C/C(O)=C(\C#N)C(=O)Nc1cc(Br)ccc1Br [LFM-A13] (first compound 0.08 µM, partner dose 2 µM) | 98 | 56.2 | 40.7 | 94 | 201 | 17.5 | 89 | 164 | 49.4 | 94.5 | 35.9 | 99.1 | 135 | 105 | 65.1 |
| CCN(CC)CCCCNc1ncc2cc(-c3cc(OC)cc(OC)c3)c(NC(=O)NC(C)(C)C)nc2n1 + Cc1cc(SCc2sc(-c3ccc(C(F)(F)F)c(F)c3)nc2C)ccc1OCC(=O)O [GW0742] (first compound 0.1 µM, partner dose 2 µM) | 57.9 | 26.2 | 226 | 62.3 | 127 | 375 | 57.3 | 113 | 89.2 | 61.9 | 41.3 | 116 | 90.7 | 75.3 | 85.5 |

Fetched one by one from the list above (two):

| SMILES | cleaved PARP positive nuclei fraction (MZ2-MEL) [%] | cleaved PARP positive nuclei fraction (MeWo) [%] | cleaved PARP positive nuclei fraction (RPMI7951) [%] | cleaved PARP positive nuclei fraction (RVH-421) [%] | cleaved PARP positive nuclei fraction (SkMel28) [%] | cleaved PARP positive nuclei fraction (SkMel30) [%] | cleaved PARP positive nuclei fraction (SkMel5) [%] | cleaved PARP positive nuclei fraction (UACC257) [%] | cleaved PARP positive nuclei fraction (UACC62) [%] | cleaved PARP positive nuclei fraction (WM115) [%] | cleaved PARP positive nuclei fraction (WM1716) [%] | cleaved PARP positive nuclei fraction (WM1745) [%] | cleaved PARP positive nuclei fraction (WM3526) [%] | cleaved PARP positive nuclei fraction (WM3619) [%] | cleaved PARP positive nuclei fraction (WM451Lu) [%] |
| --- | --- | --- | --- | --- | --- | --- | --- | --- | --- | --- | --- | --- | --- | --- | --- |
| NCC(=O)Nc1ccc(-n2nc(C(F)(F)F)cc2-c2ccc3c(ccc4ccccc43)c2)cc1 + Cc1cc(SCc2sc(-c3ccc(C(F)(F)F)c(F)c3)nc2C)ccc1OCC(=O)O [GW0742] (first compound 1 µM, partner dose 2 µM) | 106 | 583 | 73.2 | 39.1 | 196 | 69.4 | 117 | 53.5 | 117 | 141 | 200 | 180 | 144 | 86 | 202 |
| C[As](C)SC[C@H](NC(=O)CC[C@H](N)C(=O)O)C(=O)NCC(=O)O [Darinaparsin] + c1cc(-c2cnn3cc(-c4ccc(OCCN5CCCCC5)cc4)cnc23)ccn1 [Dorsomorphin] (first compound 0.4 µM, partner dose 0.4 µM) | 44 | 55.7 | 78.3 | 89.4 | 119 | 47.8 | 46.1 | 105 | 71.7 | 88.9 | 58.3 | 261 | 74.9 | 93.3 | 61.8 |

Reference: the supplement of paper PMC4604168 (melanoma cell lines)
